According to PMC12346307:
Results are given in words; binding and its absence hold for the method and conditions named. Binding seen in cells or lysates may run through a third protein. Some results given as binding are weak or reduced against the parent protein; the word gives no strength. Tags and fused reporters may be left off the sequences shown.

Protein sequences, listed by entry. Tags and fused reporters are not part of them.
UniProt Q9V9J3: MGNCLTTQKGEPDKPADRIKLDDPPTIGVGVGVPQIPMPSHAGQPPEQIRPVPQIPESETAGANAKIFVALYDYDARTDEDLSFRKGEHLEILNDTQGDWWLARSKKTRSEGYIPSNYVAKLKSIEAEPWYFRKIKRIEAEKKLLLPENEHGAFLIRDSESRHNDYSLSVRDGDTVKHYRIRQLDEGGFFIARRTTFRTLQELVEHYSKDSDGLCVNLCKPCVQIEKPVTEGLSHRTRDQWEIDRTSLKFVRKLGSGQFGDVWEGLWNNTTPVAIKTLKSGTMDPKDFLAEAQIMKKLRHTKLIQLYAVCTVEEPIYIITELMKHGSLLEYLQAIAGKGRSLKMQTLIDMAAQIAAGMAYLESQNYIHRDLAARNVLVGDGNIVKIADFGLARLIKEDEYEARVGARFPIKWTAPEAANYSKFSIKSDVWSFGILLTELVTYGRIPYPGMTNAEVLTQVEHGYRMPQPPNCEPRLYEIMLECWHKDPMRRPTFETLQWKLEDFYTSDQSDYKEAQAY

B1: Fasciclin 2 (Fas2), endogenous (protein, UniProt P34082 29-873)
chain: QSPILEIYPKQEVQRKPVGKPLILTCRPTVPEPSLVADLQWKDNRNNTILPKPNGRNQPPMYTETLPGESLALMITSLSVEMGGKYYCTASYANTEILEKGVTIKTYVAITWTNAPENQYPTLGQDYVVMCEVKADPNPTIDWLRNGDPIRTTNDKYVVQTNGLLIRNVQESDEGIYTCRAAVIETGELLERTIRVEVFIQPEIISLPTNLEAVEGKPFAANCTARGKPVPEISWIRDATQLNVATADRFQVNPQTGLVTISSVSQDDYGTYTCLAKNRAGVVDQKTKLNVLVRPQIYELYNVTGARTKEIAITCRAKGRPAPAITFRRWGTQEEYTNGQQDDDPRIILEPNFDEERGESTGTLRISNAERSDDGLYQCIARNKGADAYKTGHITVEFAPDFSHMKELPPVFSWEQRKANLSCLAMGIPNATIEWHWNGRKIKDLYDTNLKIVGTGPRSDLIVHPVTRQYYSGYKCIATNIHGTAEHDMQLKEARVPDFVSEAKPSQLTATTMTFDIRGPSTELGLPILAYSVQYKEALNPDWSTAYNRSWSPDSPYIVEGLRPQTEYSFRFAARNQVGLGNWGVNQQQSTPRRSAPEEPKPLHNPVQHDKEEPVVVSPYSDHFELRWGVPADNGEPIDRYQIKYCPGVKISGTWTELENSCNTVEVMETTSFEMTQLVGNTYYRIELKAHNAIGYSSPASIIMKTTRGIDVIQVAERQVFSSAAIVGIAIGGVLLLLFVVDLLCCITVHMGVMATMCRKAKRSPSEIDDEAKLGSGQLVKEPPPSPLPLPPPVKLGGSPMSTPLDEKEPLRTPTGSIKQNSTIEFDGRFVHSRSGEIIGKNSAV

Target: T1, Myc-tagged Ephrin (Ephrin-Myc), full length (Drosophila) (UniProt Q9V4E1)
T1 sequence: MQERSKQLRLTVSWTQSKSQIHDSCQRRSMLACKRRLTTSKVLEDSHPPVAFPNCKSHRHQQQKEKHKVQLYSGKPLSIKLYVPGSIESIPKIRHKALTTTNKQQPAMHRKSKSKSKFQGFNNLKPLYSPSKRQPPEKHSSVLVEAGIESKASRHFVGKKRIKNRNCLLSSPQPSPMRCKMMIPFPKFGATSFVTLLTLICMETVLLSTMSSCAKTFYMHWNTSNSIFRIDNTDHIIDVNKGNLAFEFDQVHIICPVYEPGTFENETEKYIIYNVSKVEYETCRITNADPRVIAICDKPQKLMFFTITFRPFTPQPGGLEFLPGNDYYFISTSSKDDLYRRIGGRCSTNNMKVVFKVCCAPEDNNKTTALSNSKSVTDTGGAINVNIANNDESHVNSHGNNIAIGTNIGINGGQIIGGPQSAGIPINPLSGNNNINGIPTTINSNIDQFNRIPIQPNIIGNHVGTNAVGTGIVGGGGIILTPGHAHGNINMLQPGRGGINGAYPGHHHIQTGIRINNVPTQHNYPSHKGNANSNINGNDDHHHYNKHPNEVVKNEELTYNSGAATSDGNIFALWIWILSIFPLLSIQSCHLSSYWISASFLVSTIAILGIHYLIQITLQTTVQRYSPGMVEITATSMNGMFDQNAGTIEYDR
Assay: co-IP; anti-Myc-tag antibody magnetic beads on lysates of dissected fly brains expressing Ephrin-Myc or EphrinCD-Myc; lysis buffer with protease inhibitor cocktail, with or without phosphatase inhibitor, 1 mM PMSF, 10 mM NaF; endogenous partners detected by Western blotting

Molecule | binding
Src42A, endogenous (from UniProt Q9V9J3 1-517) (enzyme) | binds
B1 | binds
